For the experiment, the target named is T1, Dor/Vps18 (yeast two-hybrid fusion) (Drosophila melanogaster) (UniProt Q24314).
T1 sequence: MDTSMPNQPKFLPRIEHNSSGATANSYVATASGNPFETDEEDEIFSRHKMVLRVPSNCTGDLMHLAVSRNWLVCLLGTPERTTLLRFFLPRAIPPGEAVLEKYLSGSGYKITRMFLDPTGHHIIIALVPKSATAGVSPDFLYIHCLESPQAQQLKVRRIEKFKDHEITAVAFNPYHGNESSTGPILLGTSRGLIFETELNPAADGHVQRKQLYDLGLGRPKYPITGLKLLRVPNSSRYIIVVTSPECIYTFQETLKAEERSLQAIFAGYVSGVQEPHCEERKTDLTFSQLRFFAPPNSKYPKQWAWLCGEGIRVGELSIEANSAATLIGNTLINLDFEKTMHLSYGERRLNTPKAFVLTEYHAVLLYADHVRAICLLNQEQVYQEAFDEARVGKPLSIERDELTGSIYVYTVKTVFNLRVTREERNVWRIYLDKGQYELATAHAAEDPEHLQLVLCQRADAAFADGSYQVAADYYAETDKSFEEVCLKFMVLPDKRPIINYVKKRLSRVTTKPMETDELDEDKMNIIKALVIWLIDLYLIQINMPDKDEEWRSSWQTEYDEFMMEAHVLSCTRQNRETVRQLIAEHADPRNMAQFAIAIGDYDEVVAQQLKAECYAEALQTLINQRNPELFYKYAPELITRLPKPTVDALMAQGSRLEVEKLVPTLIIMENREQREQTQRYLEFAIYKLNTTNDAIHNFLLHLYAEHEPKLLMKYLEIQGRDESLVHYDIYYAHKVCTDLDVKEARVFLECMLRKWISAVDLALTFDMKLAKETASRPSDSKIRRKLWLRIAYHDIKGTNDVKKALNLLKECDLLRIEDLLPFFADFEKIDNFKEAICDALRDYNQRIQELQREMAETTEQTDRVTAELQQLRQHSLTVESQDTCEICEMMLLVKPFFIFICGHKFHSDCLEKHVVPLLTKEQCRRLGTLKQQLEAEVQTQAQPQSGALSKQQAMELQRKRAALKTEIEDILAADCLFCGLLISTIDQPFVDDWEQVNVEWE
Briefly: two-hybrid; pGADT7 AD and pGBKT7 BD fusions in yeast strain PJ69-4A; growth on Trp-, Leu-, Ade- plates; empty vectors as negative controls.

Results are given in words; binding and its absence hold for the method and conditions named. A result given as binding can be weak or reduced; the word gives no strength. Sequences can lack the tags named with a protein.

Turning to “Rbsn-5 (yeast two-hybrid fusion) (from UniProt Q9VLS5)”, the binding result is listed as “binds”.
